Source: patent US20050272077A1
Results are given in words; binding and its absence hold for the method and conditions named. For some of these results: In cells and extracts the contact can be indirect. Some entries that bind do so weakly or less than the wild type. For some of these results: Tags and fused reporters may be left off the sequences shown.

Chains of the proteins cited; added tags and fusions are not shown. Lines headed by an entry give the natural chain unless they say otherwise; changes in a name come on top. A line that says so, or that is headed by a name, gives the form on record, which may keep a tag or linker.
Flag epitope-tagged JNK1 (P45983, form named): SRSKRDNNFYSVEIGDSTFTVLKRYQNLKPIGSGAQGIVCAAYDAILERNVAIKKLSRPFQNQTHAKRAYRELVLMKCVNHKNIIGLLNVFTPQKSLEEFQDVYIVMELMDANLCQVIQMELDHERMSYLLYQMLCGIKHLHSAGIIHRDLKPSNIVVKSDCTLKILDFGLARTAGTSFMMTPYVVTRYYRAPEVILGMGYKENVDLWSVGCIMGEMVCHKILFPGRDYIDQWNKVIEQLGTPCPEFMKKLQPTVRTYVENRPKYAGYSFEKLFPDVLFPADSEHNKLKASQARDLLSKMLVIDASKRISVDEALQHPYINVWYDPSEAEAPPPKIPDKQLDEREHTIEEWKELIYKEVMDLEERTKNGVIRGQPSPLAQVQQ
JNK1 from UV-irradiated cells (P45983, form named): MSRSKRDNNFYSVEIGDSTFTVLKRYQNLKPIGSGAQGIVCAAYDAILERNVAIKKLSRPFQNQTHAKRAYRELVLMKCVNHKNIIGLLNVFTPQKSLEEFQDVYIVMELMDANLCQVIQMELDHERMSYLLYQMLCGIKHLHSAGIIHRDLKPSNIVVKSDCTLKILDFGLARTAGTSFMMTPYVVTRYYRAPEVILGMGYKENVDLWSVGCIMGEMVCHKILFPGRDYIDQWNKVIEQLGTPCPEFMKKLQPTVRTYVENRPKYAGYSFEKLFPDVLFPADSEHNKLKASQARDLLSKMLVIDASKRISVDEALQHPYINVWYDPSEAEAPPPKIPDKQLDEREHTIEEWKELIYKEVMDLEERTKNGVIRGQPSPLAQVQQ

Experiments:
[1] = biological target: GST-ATF2 fusion protein (residues 1-109, activation domain) [GST: P08515]; assay: GST pull-down from cell extracts on GSH agarose, Western blot with M2
[2] = biological target: GST-ATF2 fusion protein (residues 1-109, activation domain) [GST: P08515]; assay: solid-phase kinase assay of Example 8
[3] = biological target: GST-ATF2 fusion protein (residues 1-109, activation domain) [GST: P08515]; assay: solid-phase kinase assay: GST-ATF2 on GSH-agarose, washed, bound JNK1 detected with [γ-32P]ATP
[4] = biological target: T1, GST-ATF2 fusion protein (residues 1-349) (UniProt P15336); assay: as above
T1 sequence (looked up): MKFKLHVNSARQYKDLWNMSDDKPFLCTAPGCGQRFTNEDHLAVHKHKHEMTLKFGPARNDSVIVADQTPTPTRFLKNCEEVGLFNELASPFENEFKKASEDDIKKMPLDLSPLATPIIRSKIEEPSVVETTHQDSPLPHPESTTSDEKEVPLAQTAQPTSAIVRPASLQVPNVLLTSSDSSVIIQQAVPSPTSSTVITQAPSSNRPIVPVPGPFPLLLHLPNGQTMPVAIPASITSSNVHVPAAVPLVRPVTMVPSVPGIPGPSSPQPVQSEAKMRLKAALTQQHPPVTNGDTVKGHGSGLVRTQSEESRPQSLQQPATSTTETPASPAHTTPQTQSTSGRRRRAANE

[5] = biological target: T2, GST-ATF2 fusion protein (residues 1-505) (UniProt P15336); assay: as above
T2 sequence (looked up): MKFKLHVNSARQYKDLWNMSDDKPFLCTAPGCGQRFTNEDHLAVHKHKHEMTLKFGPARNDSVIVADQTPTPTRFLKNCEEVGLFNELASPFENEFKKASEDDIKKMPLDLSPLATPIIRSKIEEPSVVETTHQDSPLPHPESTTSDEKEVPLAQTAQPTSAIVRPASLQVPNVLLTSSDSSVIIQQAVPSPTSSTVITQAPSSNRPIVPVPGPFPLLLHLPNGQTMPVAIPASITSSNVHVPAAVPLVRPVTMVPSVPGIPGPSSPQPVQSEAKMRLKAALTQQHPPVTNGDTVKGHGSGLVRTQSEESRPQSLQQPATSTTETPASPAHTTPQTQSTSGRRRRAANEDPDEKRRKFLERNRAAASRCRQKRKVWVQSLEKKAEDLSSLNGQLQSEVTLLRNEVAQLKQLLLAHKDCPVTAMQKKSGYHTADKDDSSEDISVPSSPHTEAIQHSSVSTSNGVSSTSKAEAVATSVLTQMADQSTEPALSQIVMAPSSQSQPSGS

[6] = biological target: T3, GST-ATF2 fusion protein (residues 20-109) (UniProt P15336); assay: as above
T3 sequence (looked up): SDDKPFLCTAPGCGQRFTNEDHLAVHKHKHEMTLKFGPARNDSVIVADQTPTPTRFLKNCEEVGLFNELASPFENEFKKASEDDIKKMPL

[7] = biological target: T4, GST-ATF2 fusion protein (residues 40-109) (UniProt P15336); assay: as above
T4 sequence (looked up): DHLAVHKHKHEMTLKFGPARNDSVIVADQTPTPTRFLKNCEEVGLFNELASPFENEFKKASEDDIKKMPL

Measured: binding

Flag epitope-tagged JNK1 (from UniProt P45983 2-384) (enzyme)
binds: [1]

JNK1 from UV-irradiated cells (from UniProt P45983 1-384) (enzyme)
binds: [2] | [3] | [4] | [5] | [6] | [7]
